Some of the results follow.

Binding signal data for 42 sequences are collected here from article PMC7819943, “Rice protein-binding microarrays: a tool to detect cis-acting elements near promoter regions in rice”.

The test deals with T1, OsSMF1 (Oryza sativa, UniProt Q6ZLB0 1-436).
T1 sequence: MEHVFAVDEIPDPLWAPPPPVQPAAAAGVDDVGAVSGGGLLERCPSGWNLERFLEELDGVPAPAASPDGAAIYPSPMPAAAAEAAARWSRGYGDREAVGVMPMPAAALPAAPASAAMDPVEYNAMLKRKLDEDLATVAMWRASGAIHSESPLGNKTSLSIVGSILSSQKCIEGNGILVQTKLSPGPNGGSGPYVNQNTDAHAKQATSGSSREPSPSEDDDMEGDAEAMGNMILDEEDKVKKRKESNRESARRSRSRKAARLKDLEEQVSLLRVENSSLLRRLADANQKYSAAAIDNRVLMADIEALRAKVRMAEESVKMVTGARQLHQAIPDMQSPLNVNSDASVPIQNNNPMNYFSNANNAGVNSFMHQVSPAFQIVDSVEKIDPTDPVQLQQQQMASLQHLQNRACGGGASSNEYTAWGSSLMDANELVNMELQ
Briefly: protein-binding microarray (RPBM); PBS, 2% BSA, 51.3 ng/ul salmon testes DNA, 50 uM zinc acetate, 200 nM TF, 25 C, 1 h; high values mean tight binding. The following applies: protein: recombinant; tags: N-terminal polyhistidine and DsRed monomer fusion (pET32a); chain copies: 2; label: CyDye5-dUTP incorporated in the synthesized complementary strand; 3' TTTTT single-stranded linker to array surface; dsDNA, one strand shown. The procedure, abridged:
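Using Ni–NTA, transcription factors fused N-terminally to polyhistidine and DsRed were purified after expression in E. coli BL21-CodonPlus. These were incubated at 200 nM with a blocked, double-stranded custom Agilent array for 1 h at 25 °C in a buffer containing 50 µM zinc acetate, and the array was washed. The binding signal is per-feature fluorescence intensity (arbitrary units) on an Axon 4000B scanner.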
In the case of “AATAGAACGGGACGTGGCTGCTCGGCACCTTCGCCTTCGCCGGAGTCACCTAGTGCAG”, the binding signal was 4200 fluorescence intensity (a.u.).

As for “ACGGACGGGCGTCGGCGCGGGCGATGACGGACTGACGACGCGGAGTCACCTAGTGCAG”, the binding signal is 3490 fluorescence intensity (a.u.).

With “GTCACTCCACTGCACTCCTATTAATAATCCTTCTGACTCACGGAGTCACCTAGTGCAG”, the binding signal is 4740 fluorescence intensity (a.u.).

As for “AGGGGTTGGTAATTGGCAGGGAATTCCTCCTTTACTTCGCCGGAGTCACCTAGTGCAG”, the binding signal is 3340 fluorescence intensity (a.u.).

As for “CGTCCTGATATTTCTGCACGTACGTAGTGCTACTTTGCTACGGAGTCACCTAGTGCAG”, the binding signal was 3860 fluorescence intensity (a.u.).

Consider “GGCAGGTGGCCTGTACCAGGAACATGTCACAACCACGCACCGGAGTCACCTAGTGCAG”, for which the binding signal is 3360 fluorescence intensity (a.u.).

Turning to “AAATTTATTACTCCTACAAGGACACCGTCACAGTCCACACCGGAGTCACCTAGTGCAG”, the binding signal is 3770 fluorescence intensity (a.u.).

As for “CGCTCGCGTCGCGCCCATCTCCACCAATCCACCACCGCCACGGAGTCACCTAGTGCAG”, the binding signal was 3910 fluorescence intensity (a.u.).

Consider “AAAGCCAAAATAATACGCATGTATGATGTGGTGCTACATTCGGAGTCACCTAGTGCAG”, for which the binding signal was 4650 fluorescence intensity (a.u.).

In the case of “ACACAGCAAAGCATCATCATCAGTTCATCACATCACAAGACGGAGTCACCTAGTGCAG”, the binding signal is 3350 fluorescence intensity (a.u.).

“GCAAGCAAAGCAAGAAACCCAAACTTTTGGTCCAGACTCCCGGAGTCACCTAGTGCAG”: the binding signal is 5120 fluorescence intensity (a.u.).

Turning to “CGCACAGCTGCCAGACCAGTGACACCGACGAAACTTCACTCGGAGTCACCTAGTGCAG”, the binding signal was 3300 fluorescence intensity (a.u.).

Consider “TGATGCAAGCTTCGTTAGACTAACTGGAATAGAAGCACTTCGGAGTCACCTAGTGCAG”, for which the binding signal is 19400 fluorescence intensity (a.u.).

In the case of “TTACGCAAAGGAAGAGAATACGCTTTCTGTTCGAGTTCACCGGAGTCACCTAGTGCAG”, the binding signal was 20700 fluorescence intensity (a.u.).

Consider “GTCCAGCGCGAGCTCCGCCAGGCGTCCCCACCACGTGGTGCGGAGTCACCTAGTGCAG”, for which the binding signal is 7470 fluorescence intensity (a.u.).

On to “CCATCTATCATCCGCATCTCAGCTCGTTGCCCAGCATCTTCGGAGTCACCTAGTGCAG”, for which the binding signal is 31800 fluorescence intensity (a.u.).

In the case of “ATGGGCCATGGCCCATCCGTGCCACGTGTCGCATGCTCCTCGGAGTCACCTAGTGCAG”, the binding signal was 27900 fluorescence intensity (a.u.).

Consider “CTCCCAGCCGTCTATGTATGCGTGTACGTATGCACGATCGCGGAGTCACCTAGTGCAG”, for which the binding signal is 6040 fluorescence intensity (a.u.).

Turning to “TAGTTCTAGCTTCCTAATGACGTGGAGCTTATGAAACTATCGGAGTCACCTAGTGCAG”, the binding signal is 13800 fluorescence intensity (a.u.).

On to “CTCTGCTCTCAAATGCTCTGTGTGCGATCAGGTATTCATGCGGAGTCACCTAGTGCAG”, for which the binding signal is 3270 fluorescence intensity (a.u.).

For the sequence “TTTGCCTACTCATCACCACATGTATAAAGTGTAAACTTTACGGAGTCACCTAGTGCAG”, the binding signal was 5240 fluorescence intensity (a.u.).

Turning to “GAGATGTCTGAACAAACAGATGGACGTGTAATGTTGTGGACGGAGTCACCTAGTGCAG”, the binding signal was 3400 fluorescence intensity (a.u.).

In the case of “TGGATCTGGAAAACAGTCGTGCTCTATTATATTGAGTCATCGGAGTCACCTAGTGCAG”, the binding signal was 5210 fluorescence intensity (a.u.).

Take “AGTTTGTATACACATATGTAAAGTTTGTATATGCGTATGCCGGAGTCACCTAGTGCAG”: the binding signal was 4510 fluorescence intensity (a.u.).

For “TTTAGCACGCGTCACCAACAAATGTACAGAGTATGTTACCCGGAGTCACCTAGTGCAG”, the binding signal was 5890 fluorescence intensity (a.u.).

Regarding “ATATATTGTTTGTCACGCTATGTTTCCCATCATCATTCTTCGGAGTCACCTAGTGCAG”, the binding signal was 3730 fluorescence intensity (a.u.).

Consider “AGCTACCAGTGATGAGAGCGCCACGTTTCGCCCTAGCAGCCGGAGTCACCTAGTGCAG”, for which the binding signal was 4740 fluorescence intensity (a.u.).

Turning to “GGTCCTCAAACTTGTTCGACTGTGTCATCCCAGTCTCTAACGGAGTCACCTAGTGCAG”, the binding signal was 4880 fluorescence intensity (a.u.).

Turning to “AAAGTATATTTAACCATGAATCAAATGATAGGAAAAGAATCGGAGTCACCTAGTGCAG”, the binding signal is 29200 fluorescence intensity (a.u.).

For the sequence “TTTGCCCACTTCTACCGTGCGGGTCCCACACTGGCATCCACGGAGTCACCTAGTGCAG”, the binding signal is 3380 fluorescence intensity (a.u.).

“GTTTTCCACTTTTCCACTGTACGTCAGGTCAATCAGCCGCCGGAGTCACCTAGTGCAG”: the binding signal was 5190 fluorescence intensity (a.u.).

In the case of “GCTGAAGGAGGTCGACCAAATGTTATCAAGATTGAAAGAGCGGAGTCACCTAGTGCAG”, the binding signal is 3170 fluorescence intensity (a.u.).

“GGCCTCACGGGCGGAGGAGCGTGGCCACCACCACCACGGCCGGAGTCACCTAGTGCAG”: the binding signal was 3590 fluorescence intensity (a.u.).

“TCTCGCCGGTCGACGGCGCGATGCTGCGCGGATTCCCTCACGGAGTCACCTAGTGCAG”: the binding signal was 4490 fluorescence intensity (a.u.).

For “ACCTGTCAGTGGGCCCCACCCCGCACTGGACCCACCTATCCGGAGTCACCTAGTGCAG”, the binding signal was 3460 fluorescence intensity (a.u.).

As to “AACCTAAACCTTTCTTGGTCCTGGTCCACATCACGATTGTCGGAGTCACCTAGTGCAG”, the binding signal was 4310 fluorescence intensity (a.u.).

Consider “TAATTCCAAGCTTGTTTCACCGACCTGCCAAACTCGATTGCGGAGTCACCTAGTGCAG”, for which the binding signal is 3270 fluorescence intensity (a.u.).

For “GAGAGACCACGACACAGCCAACCCACGCGCCGCGTGGCGCCGGAGTCACCTAGTGCAG”, the binding signal was 4230 fluorescence intensity (a.u.).

With “CCTTTTCACGTGCCGCGCGCCACGTGTTGCGGCGAGACCACGGAGTCACCTAGTGCAG”, the binding signal was 11800 fluorescence intensity (a.u.).

With “CTTCTCCCGGCGAGGCGTCACCCTCAGCAGCCACACGAGACGGAGTCACCTAGTGCAG”, the binding signal is 3150 fluorescence intensity (a.u.).

For the sequence “TGTCAAATTGATCCAACGATGAGGTGGATCCTACGAGGAGCGGAGTCACCTAGTGCAG”, the binding signal is 5730 fluorescence intensity (a.u.).

As for “ACGAGGAAGCTAATTAACCTGACGCCACCACCTCTCTTTCCGGAGTCACCTAGTGCAG”, the binding signal is 4270 fluorescence intensity (a.u.).
